No constants are given. Whether binding was seen depends on the method and setting. In cells and extracts the contact can be indirect. Binding can be weak; no strength is given.
Biological target: Pseudomonas aeruginosa FtsW (Pseudomonas aeruginosa) (UniProt Q9HW00)
Test: co-purification on anti-FLAG affinity resin

## Pseudomonas aeruginosa PBP3 (from UniProt G3XD46 1-579) (enzyme)
  binding: binds

From paper doi:10.1101/358663
